This is one part of the list. Further columns of the screen follow, without active or inactive calls. The list favours compounds with an active or inconclusive main result. Words in brackets tell the shape of the fitted curve; partial curves, single points and poor fits give uncertain potencies.
Experiment: qHTS Assay to Find Inhibitors of Chronic Active B-Cell Receptor Signaling
Details: ABC-DLBCL IkBa-CBG/CBR reporter, luminescence ratio (green luciferase fused to IkBa over red control in TMD8 lymphoma cells), 4 h
How it was run: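 TMD8 human ABC-DLBCL cells with doxycycline-inducible IκBα–green luciferase fusion and unfused red luciferase, in 0.5% FBS medium; compounds up to 46 uM, 4 h at 37C. Green/red luminescence ratio, filter-overlap corrected, fitted to concentration-response curves.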

[1] = measured here: CBR red luminescence, cell number

| Compound | AC50 [1] | AC50 (measured here: IkBa-CBG green luminescence) |
| --- | --- | --- |
| COc1ccc(N(CC(=O)NC2CCCC2)C(=O)c2ccc(N3CCCCC3)nc2)cc1 | 6.31 µM [rising, partial curve, poor fit] | – |
| CN(c1ccccc1)S(=O)(=O)c1cccc(C(=O)NCc2ccccc2CN2CCCC2)c1 | 20.6 µM [falling, single point] | – |
| CN1CCN(C(=O)CN2C(=O)CC(C)(C)S(=O)(=O)c3ccccc32)CC1 | 2.06 µM [rising, partial curve, poor fit] | – |
| C/C=C/Cn1c(Br)nc2c1c(=O)[nH]c(=O)n2C | 6.51 µM [falling, single point] | – |
| Cc1c(O)c(S(=O)(=O)c2ccccc2)c(=O)n(-c2ccccc2)c1-c1ccccc1 | 25.9 µM [falling, partial curve, poor fit] | – |
| Cc1csc(SCC(=O)NCCc2ccc(Cl)cc2Cl)n1 | 16.4 µM [falling, partial curve, poor fit] | – |
| COc1ccc2c(c1)CC/C2=N\OC(=O)c1cccc(C)c1 | 3.26 µM [rising, partial curve, poor fit] | – |
| COc1ccc(Cl)cc1N1C(=O)C2CCCN2C1c1sccc1C (stereo unspecified) | 25.1 µM [falling, single point] | – |
| COc1cc(/C=C/C(=O)OCC(=O)NCc2ccco2)ccc1OCC#N | 5.01 µM [falling, full curve] | – |
| Cc1ccc(C(=O)NC(=C(Cl)Cl)S(=O)(=O)c2ccccc2)cc1 | 9.2 µM [falling, partial curve] | – |
| C/C(=N/NS(=O)(=O)c1ccc(C)cc1)c1c(O)c2ccccc2oc1=O | 10 µM [falling, partial curve] | – |
| C=CCNC(=O)CCCOc1ccc(C)cc1 | 4.11 µM [rising, partial curve, poor fit] | – |
| O=[N+]([O-])c1ccc(S(=O)(=O)N2CCN=C2SCc2cccnc2)cc1 | 2.51 µM [rising, full curve, poor fit] | – |
| Cc1[nH]n(-c2ccccc2)c(=O)c1/C=N\NC(=O)C1COc2ccccc2O1 (stereo unspecified) | – | 0.517 µM [rising, partial curve, poor fit] |
| COCCn1c(=O)[nH]c2cc(C(=O)N3CCN(c4cc(C)ccc4C)CC3)ccc2c1=O | 4.47 µM [falling, full curve] | – |
| COc1cc(OC)c2c(-c3ccccc3)cc(=O)oc2c1C(CC(=O)N1CCN(c2ccccc2)CC1)c1ccc(N(C)C)cc1 (stereo unspecified) | 35.5 µM [falling, single point] | – |
| CC(C)c1nnc(NC(=O)c2cccc(NC(=O)C(F)(F)F)c2)s1 | 35.5 µM [falling, single point] | – |
| O=C(c1ccc(Cl)c(Cl)c1)N1CCC(=O)N(C(COCc2cccc(Cl)c2)Cc2ccccc2)CC1 (stereo unspecified) | 29.1 µM [falling, single point] | – |
| COc1ccccc1NCC(=O)N/N=C(\C)c1cccs1 | 0.355 µM [falling, full curve, poor fit] | – |
| Cn1cc(CNC(=O)c2cc(COc3ccc4c(c3)CCCC4)on2)cn1 | 1.26 µM [rising, partial curve, poor fit] | – |
| C/C(CC(=O)Nc1cccnc1)=N\NC(=O)C(=O)NC(C)C | 35.5 µM [falling, single point] | – |

Whole records, quoted from the list:
CC(C)c1nnc(NC(=O)c2cccc(NC(=O)C(F)(F)F)c2)s1 is listed with AC50 [1]: 35.5 µM [falling, single point]
O=C(c1ccc(Cl)c(Cl)c1)N1CCC(=O)N(C(COCc2cccc(Cl)c2)Cc2ccccc2)CC1 (stereo unspecified) is listed with AC50 [1]: 29.1 µM [falling, single point]
CN(c1ccccc1)S(=O)(=O)c1cccc(C(=O)NCc2ccccc2CN2CCCC2)c1 is listed with AC50 [1]: 20.6 µM [falling, single point]
Cc1csc(SCC(=O)NCCc2ccc(Cl)cc2Cl)n1 is listed with AC50 [1]: 16.4 µM [falling, partial curve, poor fit]

(next part)

| Compound | AC50 [1] | AC50 (measured here: IkBa-CBG green luminescence) |
| --- | --- | --- |
| Cc1cc(Cl)ccc1OCC(=O)NNC(=O)C1CCN(c2ncnc3sc(C)c(C)c23)CC1 | 29.1 µM [falling, single point] | – |
| COc1ccc(C2=CC(c3sccc3C)n3nnnc3N2)cc1 (stereo unspecified) | 0.794 µM [falling, full curve, poor fit] | – |
| O=C(CN1C(=O)S/C(=C\c2cccs2)C1=O)Nc1ccc(O)cc1C(=O)O | 3.55 µM [falling, partial curve, poor fit] | – |
| COc1cccc(/C=C2\SC(=S)N(CCCC(=O)N(CCO)c3ccccc3)C2=O)c1 | 4.47 µM [falling, partial curve] | – |
| CCOC(=O)c1ccc(CNC(=O)c2cc(C(C)(C)C)oc2C)o1 | 18.4 µM [falling, single point] | – |
| O[C@@H]1[C@@H](O)C=C2CCN3Cc4cc5c(cc4[C@H]1C23)OCO5 (stereo partly specified) | 5.8 µM [falling, partial curve] | – |
| NS(=O)(=O)c1ccc(NC(=S)NC(=O)C2CCCCC2)cc1 | 35.5 µM [rising, single point] | – |
| CC(C)(C)NC(=O)CSc1nc2cccnc2n1C1CCCCC1 | 0.447 µM [rising, full curve, poor fit] | – |
| CCOC(=O)C1=C(OCc2ccc(Cl)cc2)C2C=C(C)C=CC2N=C1 (stereo unspecified) | 23.1 µM [falling, single point] | – |
| CCN1CCN(c2nc3c(c(=O)[nH]c(=O)n3C)n2CCCSc2ncccn2)CC1 | 0.794 µM [falling, full curve] | – |
| COc1ccccc1NC(=O)c1cc2cc(Br)ccc2oc1=N | 3.16 µM [rising, partial curve, poor fit] | – |
| COc1ccc(N=C2SC(CC(=O)Nc3ccc(F)cc3)C(=O)N2Cc2ccco2)cc1 (stereo unspecified) | 29.1 µM [rising, single point] | – |
| Cn1c2ccccc2c2cc(/C=N/NC(=O)c3ccccc3F)ccc21 | 14.1 µM [falling, partial curve] | – |
| Cc1ccc2c(C)c(C(=O)N3CCC(O)(c4ccccc4)CC3)oc2c1C | 11.2 µM [rising, partial curve, poor fit] | – |
| COc1ccc(/C=C\C(=O)NCC(=O)N/N=C/c2ccc(O)cc2O)cc1 | 12.6 µM [falling, single point] | – |
| Cn1c(=O)cc(OCC(=O)NCc2cccnc2)c2ccccc21 | 11.2 µM [rising, partial curve] | – |
| CCC(=O)Nc1sc(Cc2ccccc2)c(C)c1C(N)=O | 3.98 µM [falling, full curve] | – |
| C=CCn1c(C)csc1=Nc1ccccc1C | 25.1 µM [rising, partial curve, poor fit] | – |
| CCCc1cc(=O)oc2cc(OCC(=O)NCCCN3CCCC3=O)ccc12 | 35.5 µM [rising, single point] | – |
| Fc1cccc(/C=N/Nc2ccc3ccccc3n2)c1 | 1.58 µM [falling, partial curve, poor fit] | – |
